PubChem BioAssay AID1259405, NCATS – 2018

- Screen: 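Knock-downs that lift recombinant protein yield in hamster ovary cells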 (primary screen)
- System: Chinese hamster CHO-K1 ovary cells with stable secreted eGFP expression
- Reagent: single siRNA against mouse genes, 0.8 pmol siRNA per well (2 µl of 400 nM stock)
- Time to read-out: 3 days
- Measurement: 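Per-well intracellular GFP measured by laser scanning cytometry, plus viability from ATP luminescence, each relative to plate median of non-targeting control wells, in %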
- Direction: GFP, % of control: higher = more GFP per well, higher productivity; viability (ATP), % of control: higher = more viable cells (more ATP)
- Call rule: 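Called active when intracellular GFP, relative to negative control, is at or above 120%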
The deposit covers about 50,000 reagents; below is an unselected part. Of all reagents, about 4,000 (8%) were called active. 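Mouse siRNA library applied to hamster cells; one well for each siRNA.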 The numbers tell different reagents against one gene apart.

| gene | reagent | GFP, % of control | viability (ATP), % of control | Call |
| --- | --- | --- | --- | --- |
| Ncapd2 (GeneID 68298) | 1 | 97.4 | 60.8 | inactive |
| Ncapd2 (GeneID 68298) | 2 | 81.9 | 60.2 | inactive |
| Ncapd2 (GeneID 68298) | 3 | 34.2 | 62.2 | inactive |
| Rab3c (GeneID 67295) | 1 | 49.2 | 58.9 | inactive |
| Rab3c (GeneID 67295) | 2 | 65.1 | 59.5 | inactive |
| Fpr2 (GeneID 14289) | 1 | 85.8 | 58.8 | inactive |
| Fpr2 (GeneID 14289) | 2 | 73 | 76.6 | inactive |
| Fpr2 (GeneID 14289) | 3 | 79.1 | 41.7 | inactive |
| Bcl6 (GeneID 12053) | 1 | 70.6 | 73.2 | inactive |
| Bcl6 (GeneID 12053) | 2 | 68.7 | 52.9 | inactive |
| Ifitm7 (GeneID 74482) | 1 | 69.3 | 62.3 | inactive |
| Ifitm7 (GeneID 74482) | 2 | 24.7 | 36.4 | inactive |
| Ifitm7 (GeneID 74482) | 3 | 173 | 54.7 | active |
| Trib1 (GeneID 211770) | 1 | 107 | 96.4 | inactive |
| Trib1 (GeneID 211770) | 2 | 81.4 | 54 | inactive |
| Trib1 (GeneID 211770) | 3 | 69.7 | 64.4 | inactive |
| Zc3h10 (GeneID 103284) | 1 | 61 | 68.2 | inactive |
| Zc3h10 (GeneID 103284) | 2 | 48.4 | 73.3 | inactive |
| Zc3h10 (GeneID 103284) | 3 | 60.4 | 65.6 | inactive |
| Unc45b (GeneID 217012) | 1 | 39.1 | 51.6 | inactive |
| Unc45b (GeneID 217012) | 2 | 79.9 | 34.4 | inactive |
| Unc45b (GeneID 217012) | 3 | 87.7 | 68.8 | inactive |
| Ext2 (GeneID 14043) | 1 | 128 | 132 | active |
| Ext2 (GeneID 14043) | 2 | 45.6 | 74.4 | inactive |
| Ext2 (GeneID 14043) | 3 | 116 | 127 | inactive |
| Cstdc2 (GeneID 77705) | 1 | 87.8 | 68.4 | inactive |
| Cstdc2 (GeneID 77705) | 2 | 74.3 | 54.4 | inactive |
| Cstdc2 (GeneID 77705) | 3 | 25.4 | 40.2 | inactive |
| Lbp (GeneID 16803) | 1 | 85.8 | 75.6 | inactive |
| Lbp (GeneID 16803) | 2 | 87.8 | 86 | inactive |
| Lbp (GeneID 16803) | 3 | 27.8 | 29 | inactive |
| Fhdc1 (GeneID 229474) | 1 | 69.2 | 84.2 | inactive |
| Fhdc1 (GeneID 229474) | 2 | 50.6 | 65.8 | inactive |
| Fhdc1 (GeneID 229474) | 3 | 105 | 76.1 | inactive |
| Or5p58 (GeneID 258728) | 1 | 84.1 | 37.5 | inactive |
| Or5p58 (GeneID 258728) | 2 | 107 | 87.5 | inactive |
| Or5p58 (GeneID 258728) | 3 | 93.4 | 61.3 | inactive |
| Vps54 (GeneID 245944) | 1 | 71.6 | 58.5 | inactive |
| Vps54 (GeneID 245944) | 2 | 88.3 | 71.1 | inactive |
| Vps54 (GeneID 245944) | 3 | 78 | 84 | inactive |
| Skint7 (GeneID 328505) | 1 | 192 | 69.1 | active |
| Skint7 (GeneID 328505) | 2 | 101 | 97.5 | inactive |
| Skint7 (GeneID 328505) | 3 | 192 | 125 | active |
| Klra15 (GeneID 27423) | 1 | 60.3 | 74.7 | inactive |
| Klra15 (GeneID 27423) | 2 | 50.4 | 19.2 | inactive |
| Klra15 (GeneID 27423) | 3 | 99.4 | 73.4 | inactive |
| Ampd3 (GeneID 11717) | 1 | 103 | 75.5 | inactive |
| Ampd3 (GeneID 11717) | 2 | 61.3 | 77.7 | inactive |
| Ampd3 (GeneID 11717) | 3 | 86.4 | 45.3 | inactive |
| Robo3 (GeneID 19649) | 1 | 92.8 | 59.5 | inactive |
| Robo3 (GeneID 19649) | 2 | 90.4 | 121 | inactive |
| Robo3 (GeneID 19649) | 3 | 57.4 | 74.3 | inactive |
| Stau1 (GeneID 20853) | 1 | 64.1 | 74.2 | inactive |
| Stau1 (GeneID 20853) | 2 | 66.3 | 91.7 | inactive |
| Stau1 (GeneID 20853) | 3 | 61.4 | 67.3 | inactive |
| Marchf3 (GeneID 320253) | 1 | 60.3 | 78 | inactive |
| Marchf3 (GeneID 320253) | 2 | 133 | 84.5 | active |
| Marchf3 (GeneID 320253) | 3 | 123 | 105 | active |
| 9330175E14Rik (GeneID 320377) | 1 | 47 | 44.5 | inactive |
| 9330175E14Rik (GeneID 320377) | 2 | 8.41 | 12 | inactive |
| 9330175E14Rik (GeneID 320377) | 3 | 56.1 | 39.1 | inactive |
| 9330175E14Rik (GeneID 320377) | 4 | 52.2 | 56.9 | inactive |
| 9330175E14Rik (GeneID 320377) | 5 | 64.6 | 74.8 | inactive |
| 9330175E14Rik (GeneID 320377) | 6 | 64.1 | 81.9 | inactive |
| Trir (GeneID 68544) | 1 | 61.3 | 64.1 | inactive |
| Trir (GeneID 68544) | 2 | 74.5 | 71.5 | inactive |
| Trir (GeneID 68544) | 3 | 56.8 | 65.3 | inactive |
| Bccip (GeneID 66165) | 1 | 43 | 61.6 | inactive |
| Bccip (GeneID 66165) | 2 | 58.6 | 77.2 | inactive |
| Bccip (GeneID 66165) | 3 | 139 | 139 | active |
| Lin37 (GeneID 75660) | 1 | 87.7 | 73.4 | inactive |
| Lin37 (GeneID 75660) | 2 | 123 | 79.5 | active |
| Lin37 (GeneID 75660) | 3 | 86.4 | 73.2 | inactive |
| Sri (GeneID 109552) | 1 | 89.4 | 96.2 | inactive |
| Sri (GeneID 109552) | 2 | 87.4 | 65.5 | inactive |
| Eif2b1 (GeneID 209354) | 1 | 94.7 | 109 | inactive |
| Eif2b1 (GeneID 209354) | 2 | 65.9 | 77.4 | inactive |
| Eif2b1 (GeneID 209354) | 3 | 79 | 52.3 | inactive |
| Defb29 (GeneID 75400) | 1 | 99.7 | 90.7 | inactive |
| Defb29 (GeneID 75400) | 2 | 80.1 | 96.1 | inactive |
| Defb29 (GeneID 75400) | 3 | 88.7 | 88.7 | inactive |
| Tie1 (GeneID 21846) | 1 | 86.4 | 76.9 | inactive |
| Tie1 (GeneID 21846) | 2 | 51.9 | 86.1 | inactive |
| Tie1 (GeneID 21846) | 3 | 65.4 | 49 | inactive |
